Test results reported in PubChem BioAssay AID540276 (National Center for Advancing Translational Sciences (NCATS), 2011).
Hit rate of the full screen: of about 300,000 compounds, about 5,400 (1.8%) were called active. Inconclusive means that the source gave no clear call. Such entries were picked first, then a sample of the others. The call rests on the fitted dose curve; tested in HEK293 cells. Potencies of inconclusive entries are doubtful fits and often do not repeat.

Experiment: qHTS for inhibitors of binding or entry into cells for Marburg Virus
Conditions: Marburg virus pseudotyped entry inhibition, cell reporter; activity change, negative = inhibition: at 37.8 µM (top of the series) unless noted
On the % scale 0 is the no-effect control and ±100 the full control effect; potency means the concentration at half of the fitted maximal effect.

Compound	Potency	activity change, negative = inhibition
COc1cccc(-n2c(SC3CCOC3=O)nc3ccccc3c2=O)c1 (configuration not stated)	inconclusive: 2.91 µM [inhibitor, partial curve, poor fit]	
CCN(CC(=O)NC(C)(C)C)C(=O)CCl	inconclusive: 35.5 µM [inhibitor, single point]	
Cc1sc(NC(=O)CSc2nnc(CCNC(=O)c3cccs3)n2C)nc1-c1ccccc1	inconclusive: 10.3 µM [inhibitor, partial curve, poor fit]	
CCCCCCCCCCCCCCCC[n+]1ccccc1	inconclusive: 35.5 µM [inhibitor, single point]	
CCCN1Cc2cccc(C(=O)Nc3cccc(C(=O)OCC)c3)c2C1=O		inactive: 0.0674% [at 46.1 µM]
O=C(Nc1ncc2c(n1)-c1ccccc1CC2)c1cccs1	inconclusive: 22.4 µM [inhibitor, partial curve, poor fit]	
O=C1OC(c2ccccc2)/C(=C(/O)c2ccccc2)C1=O (configuration not stated)		inactive: 17.9%
O=C(O)c1ccc(S(=O)(=O)N2CCC(n3nnc4cc(C(F)(F)F)ccc43)CC2)cc1		inactive: 14.3% [at 46.1 µM]
Cc1cc(=O)[nH]c(SCC(=O)Nc2nc(-c3ccccc3)c(-c3ccccc3)o2)n1		inactive: 7.41% [at 46.1 µM]
O=C(O)C1CCCN(C(=O)NCc2ccccc2)C1 (configuration not stated)	inconclusive: 16.4 µM [activator, partial curve, poor fit]	
CCCCCCN1C[C@@H](O)[C@H](n2cc(-c3ccc(F)cc3)nn2)C[C@H]1c1ccc(C)cc1	inconclusive: 3.96 µM [inhibitor, partial curve]	
Cc1ccc2cc(CCNS(=O)(=O)c3ccc(Cl)cc3)c(=O)[nH]c2c1C	inconclusive: 2.82 µM [inhibitor, partial curve, poor fit]	
O=C(/C=C/c1ccc(Cl)cc1Cl)c1cccnc1	inconclusive: 15.8 µM [inhibitor, partial curve, poor fit]	
Cc1ccc(-n2c(-c3ccc(Cl)cc3Cl)n[nH]c2=S)cc1	inconclusive: 22.4 µM [activator, partial curve, poor fit]	
CC1=CC(C)(C)N(C(=O)CSc2nnc(N)s2)c2ccccc21	inconclusive: 0.794 µM [activator, full curve, poor fit]	
CCc1ccccc1N1CSC2=C(C#N)C(c3cc(OC)c(OC)cc3OC)CC(=O)N2C1 (configuration not stated)	inconclusive: 23.1 µM [inhibitor, single point]	
CCN1CCN(CC(=O)N/N=C/c2ccc(F)cc2F)CC1	inconclusive: 5.62 µM [activator, single point]	
COc1ccc(C)cc1N(C)C(=O)CCc1nc(-c2ccccc2F)no1		inactive: -0.0705% [at 46.1 µM]
CCN(CC(=O)NCC(=O)Nc1ccc(Br)cc1C)Cc1ccccc1		inactive: -4.57% [at 46.1 µM]
CC(C)(C)c1ccc(N/N=C(\C#N)S(=O)(=O)C(C)(C)C)cc1	active: 10 µM	
CCCCNc1oc(-c2ccc(COc3ccc(OC)cc3)o2)nc1C#N	inconclusive: 35.5 µM [activator, single point]	

Compound	Potency	activity change, negative = inhibition
Cc1cccc(S(=O)(=O)c2c(N)n(Cc3ccco3)c3nc4ccccc4nc23)c1		inactive: -29.2%
Cc1cc(NC(=O)CN2CCC(C)CC2)nc2c1c(=O)oc1ccccc12		inactive: -8.71% [at 46.1 µM]
O=S(=O)(NN1CCOCC1)c1ccc(Cl)s1	inconclusive: 14.1 µM [activator, single point]	
CCOC(=O)c1ccccc1N=N/C(C(C)=O)=C(/C)O	inconclusive: 6.51 µM [activator, single point]	
c1csc(-n2nc3ccccc3n2)c1		inactive: 25%
O=C(Nc1ccccn1)C12CC3CC(C1)CC(C(=O)Nc1ccccn1)(C3)C2	inconclusive: 4.61 µM [activator, partial curve, poor fit]	
COc1ccc2cc(/C=N/NC(=O)c3ccc(CN(c4cccc(Cl)c4Cl)S(C)(=O)=O)cc3)c(Cl)nc2c1	active: 0.562 µM	
Cc1c(-c2ccccc2)sc2nc[nH]c(=S)c12	inconclusive: 3.55 µM [inhibitor, partial curve, poor fit]	
NC(=O)c1cccc(N=Cc2cc(Cl)cc(Cl)c2O)c1		inactive: 13% [at 46.1 µM]
O=C(Cn1cnc2ccccc2c1=O)NCCC(=O)N1CCN(Cc2ccccc2)CC1	inconclusive: 13 µM [activator, partial curve, poor fit]	
COc1ccc(/C=N/N(C(C)=O)c2nc(-c3ccc(C)cc3)cs2)cc1	inconclusive: 0.0041 µM [inhibitor, full curve, poor fit]	
COc1cc(/C=N/NC(=O)C(=O)/C=C2\NC3(CCCC3)Cc3ccccc32)ccc1O	inconclusive: 35.5 µM [inhibitor, single point]	
Cc1ccc2[nH]c(=O)c3cc(C(=O)NCCCN4CCC(C)CC4)sc3c2c1	inconclusive: 12.6 µM [inhibitor, partial curve, poor fit]	
COC[C@H]1CCCN1[C@H]1C[S+](=O)([O-])N[C@H]1COCc1ccccc1	inconclusive: 0.0199 µM [activator, full curve, poor fit]	
CN(C)CCSc1nc(-c2ccccc2)nc2c1CCCC2	inconclusive: 8.91 µM [inhibitor, partial curve, poor fit]	
O=C(O)c1cccc(S(=O)(=O)NCC2CCCO2)c1 (configuration not stated)	inconclusive: 4.61 µM [inhibitor, partial curve, poor fit]	
C=CCNCCOCCOc1ccc(Cl)cc1C(C)(C)C	inconclusive: 16.4 µM [inhibitor, single point]	
CC1OC1c1ccc(-c2ccc(C3OC3C)cc2)cc1 (configuration not stated)	inconclusive: 2.82 µM [activator, partial curve, poor fit]	
O=C(Nc1ccc(N2CCCC2)cc1)C(Cl)c1ccccc1 (configuration not stated)	inconclusive: 1 µM [activator, single point]	
Cc1ccc(C(=O)C2CCN(CC(=O)Nc3ccccc3C)CC2)cc1	inconclusive: 35.5 µM [inhibitor, single point]	
COC(=O)c1sc(S(=O)(=O)N2CCN(CCO)CC2)c(C(=O)OC)c1C	inconclusive: 2.82 µM [inhibitor, single point]	

Record cards (already shown).
Cc1ccc(C(=O)C2CCN(CC(=O)Nc3ccccc3C)CC2)cc1 as listed: Potency: inconclusive: 35.5 µM [inhibitor, single point]
COc1cc(/C=N/NC(=O)C(=O)/C=C2\NC3(CCCC3)Cc3ccccc32)ccc1O as listed: Potency: inconclusive: 35.5 µM [inhibitor, single point]
COC[C@H]1CCCN1[C@H]1C[S+](=O)([O-])N[C@H]1COCc1ccccc1 as listed: Potency: inconclusive: 0.0199 µM [activator, full curve, poor fit]
